# Assay results as given in the supplement of paper PMC4635364.
# Where a name gives a salt, the structure may show the parent alone. This is one part of the list. Repeats in this data set agree poorly, so a single value says little.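 Cells: ReNCell VM human fetal ventral-midbrain neural progenitors, differentiated mitogen-free. Blinded raters compared doublecortin-stained (early neurons) or tyrosine hydroxylase-stained (dopaminergic neurons) images with untreated wells, where 0 means no change. After repeats and both raters were averaged, compounds scoring 2 or above became hits for retesting.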 Where a SMILES comes first, the peptide text is derived from it. Bridges are numbered along the chain shown (N, C = ends). [ ]: non-standard residue; d: D form. The star is where a group is joined. Ileψ(thiazoline)Cys = CC[C@H](C)[C@H](N)C1=N[C@H](C(=O)*)CS1; dOrn = NCCC[C@@H](N)C(=O)O
# Tests used:
# ReNCell VM [1] = assay: neuronal differentiation score (DCX+ cell fraction vs untreated, manual image score) (score (-3 to 3)); higher = more neuronal differentiation; settings: 2 uM, 2 weeks
# ReNCell VM [2] = assay: dopaminergic neuron differentiation score (TH+ cell fraction vs untreated, manual image score) (score (0 to 3)); higher = more TH+ dopaminergic neuron differentiation; settings: 2 uM, 4 weeks, BDNF 10 ng/ml + GDNF 10 ng/ml
smiles,measurement,setting,value
CC(C(=O)O)c1ccc2c(c1)[nH]c1ccc(Cl)cc12 (stereo not drawn) [Carprofen],neuronal differentiation score,ReNCell VM [1]; library: Prestwick,inactive: 0
same,dopaminergic neuron differentiation score,ReNCell VM [2]; library: Prestwick,inactive: 0
CC(C)(C)NC[C@H](O)COc1nsnc1N1CCOCC1 [(S)-Timolol maleate],neuronal differentiation score,ReNCell VM [1]; library: Tocriscreen,inactive: 0
same,dopaminergic neuron differentiation score,ReNCell VM [2]; library: Tocriscreen,inactive: 0
O=C(O)c1ccccc1OP(=O)(O)O,neuronal differentiation score,ReNCell VM [1]; library: Spectrum,inactive: 0
same,dopaminergic neuron differentiation score,ReNCell VM [2]; library: Spectrum,inactive: 0
C[C@H](O)C(=O)C1=Nc2c(nc(N)[nH]c2=O)NC1 [Sepiapterin],neuronal differentiation score,ReNCell VM [1]; library: LOPAC,inactive: 0
same,dopaminergic neuron differentiation score,ReNCell VM [2]; library: LOPAC,inactive: 0
Cc1ccc(N(CC2=NCCN2)c2cccc(O)c2)cc1 [Phentolamine mesylate],neuronal differentiation score,ReNCell VM [1]; library: LOPAC,inactive: 0
same,dopaminergic neuron differentiation score,ReNCell VM [2]; library: LOPAC,inactive: 0
C#C[C@]1(O)CC[C@H]2[C@@H]3CCC4=C(CCC(=O)C4)[C@H]3CC[C@@]21C [Norethynodrel],neuronal differentiation score,ReNCell VM [1]; library: Prestwick,inactive: 0
same,dopaminergic neuron differentiation score,ReNCell VM [2]; library: Prestwick,inactive: 0
"N=C(N)SCCc1cccc(CCSC(=N)N)c1 [1,3-PBIT dihydrobromide]",neuronal differentiation score,ReNCell VM [1]; library: LOPAC,inactive: -1
same,dopaminergic neuron differentiation score,ReNCell VM [2]; library: LOPAC,inactive: 0
C=CC(C)(C)c1c2c(c(O)c3c(=O)c4ccc(O)c(O)c4oc13)C=CC(C)(C)O2 [macluraxanthone],neuronal differentiation score,ReNCell VM [1]; library: Natural,inactive: 0
same,dopaminergic neuron differentiation score,ReNCell VM [2]; library: Natural,inactive: 0
Clc1cnccn1 [2-Chloropyrazine],neuronal differentiation score,ReNCell VM [1]; library: Prestwick,inactive: 0
same,dopaminergic neuron differentiation score,ReNCell VM [2]; library: Prestwick,inactive: 0
CC(C)OC(=O)C(C)(C)Oc1ccc(C(=O)c2ccc(Cl)cc2)cc1,neuronal differentiation score,ReNCell VM [1]; library: Spectrum,inactive: 0
same,dopaminergic neuron differentiation score,ReNCell VM [2]; library: Spectrum,inactive: 0
O=C(O)C1Cc2c([nH]c3ccccc23)C(c2coc3ccccc3c2=O)N1 (stereo not drawn),neuronal differentiation score,ReNCell VM [1]; library: Natural,inactive: 0
same,dopaminergic neuron differentiation score,ReNCell VM [2]; library: Natural,inactive: 0
"CCCn1c(=O)c2[nH]c(-c3ccc(S(=O)(=O)O)cc3)nc2n(CCC)c1=O [1,3-Dipropyl-8-p-sulfophenylxanthine]",neuronal differentiation score,ReNCell VM [1]; library: LOPAC,inactive: 0
same,dopaminergic neuron differentiation score,ReNCell VM [2]; library: LOPAC,inactive: 0
OCC1OC(n2cnc3c(NC4CCCC4)nc(Cl)nc32)C(O)C1O (stereo not drawn) [2-Chloro-N6-cyclopentyladenosine],neuronal differentiation score,ReNCell VM [1]; library: Tocriscreen,inactive: -3
same,dopaminergic neuron differentiation score,ReNCell VM [2]; library: Tocriscreen,inactive: 0
"C1CCC2(CC1)CCNCC2 [4,4-Pentamethylenepiperidine hydrochloride]",neuronal differentiation score,ReNCell VM [1]; library: Tocriscreen,inactive: 0
same,dopaminergic neuron differentiation score,ReNCell VM [2]; library: Tocriscreen,inactive: 0
O=c1[nH]cnc2c1ncn2[C@H]1CC[C@@H](CO)O1 [Didanosine],neuronal differentiation score,ReNCell VM [1]; library: Prestwick,inactive: 0
same,dopaminergic neuron differentiation score,ReNCell VM [2]; library: Prestwick,inactive: 0
OCC(CO)N[C@H]1C[C@](O)(CO)[C@@H](O)[C@H](O)[C@H]1O [Voglibose],neuronal differentiation score,ReNCell VM [1]; library: Tocriscreen,inactive: 0
same,dopaminergic neuron differentiation score,ReNCell VM [2]; library: Tocriscreen,inactive: 0
CN1CCN(CCc2ccc(Cl)c(Cl)c2)CC1 [BD 1063 dihydrochloride],neuronal differentiation score,ReNCell VM [1]; library: Tocriscreen,inactive: 0
same,dopaminergic neuron differentiation score,ReNCell VM [2]; library: Tocriscreen,inactive: 1
OCCN1C[C@H](O)[C@@H](O)[C@H](O)[C@H]1CO,neuronal differentiation score,ReNCell VM [1]; library: Spectrum,inactive: 0
same,dopaminergic neuron differentiation score,ReNCell VM [2]; library: Spectrum,inactive: 0
O=C1c2ccccc2-n2c1nc1ccccc1c2=O [tryptanthrin],neuronal differentiation score,ReNCell VM [1]; library: Natural,active: 3
same,dopaminergic neuron differentiation score,ReNCell VM [2]; library: Natural,inactive: 0
O=C(/C=C/c1ccc(O)c(O)c1)OCCc1ccccc1,neuronal differentiation score,ReNCell VM [1]; library: Spectrum,inactive: 0
same,dopaminergic neuron differentiation score,ReNCell VM [2]; library: Spectrum,inactive: 0
Cc1ccccc1CNc1ncnc2c1ncn2[C@@H]1O[C@H](CO)[C@@H](O)[C@H]1O [Metrifudil],neuronal differentiation score,ReNCell VM [1]; library: LOPAC,inactive: 0
same,dopaminergic neuron differentiation score,ReNCell VM [2]; library: LOPAC,inactive: 0
COc1cc(-c2coc3cc(OCc4ccccc4)c(OC)c(O)c3c2=O)cc(OCc2ccccc2)c1OC,neuronal differentiation score,ReNCell VM [1]; library: Spectrum,inactive: 0
same,dopaminergic neuron differentiation score,ReNCell VM [2]; library: Spectrum,inactive: 0
O=C(O)CCc1ccc(NCc2cccc(Oc3ccccc3)c2)cc1,neuronal differentiation score,ReNCell VM [1]; library: Tocriscreen,inactive: 0
same,dopaminergic neuron differentiation score,ReNCell VM [2]; library: Tocriscreen,inactive: 0
CCc1cccc(N(C)C(=N)Nc2cccc3ccccc23)c1,neuronal differentiation score,ReNCell VM [1]; library: LOPAC,inactive: -1
same,dopaminergic neuron differentiation score,ReNCell VM [2]; library: LOPAC,inactive: 0
CC(=O)NCC(=O)N[C@H](CCC(=O)O)C(=O)O [N-Acetylglycyl-D-glutamic acid] (Ac-Gly-[dE]-OH),neuronal differentiation score,ReNCell VM [1]; library: Tocriscreen,inactive: 0
same,dopaminergic neuron differentiation score,ReNCell VM [2]; library: Tocriscreen,inactive: 0
C[C@]12CC[C@@H]3c4ccc(OS(=O)(=O)O)cc4CC[C@H]3[C@@H]1CCC2=O [Estropipate],neuronal differentiation score,ReNCell VM [1]; library: Prestwick,inactive: 0
same,dopaminergic neuron differentiation score,ReNCell VM [2]; library: Prestwick,inactive: 0
COc1cc2c(cc1O)CC[C@@H]1[C@@H]2CC[C@]2(C)[C@@H](O)CC[C@@H]12 [2-methoxyestradiol],neuronal differentiation score,ReNCell VM [1]; library: LOPAC,inactive: 0
same,dopaminergic neuron differentiation score,ReNCell VM [2]; library: LOPAC,inactive: 1
CCCN(CCC)C(=O)C(CCC(=O)O)NC(=O)c1ccccc1 (stereo not drawn),neuronal differentiation score,ReNCell VM [1]; library: Spectrum,inactive: 0
same,dopaminergic neuron differentiation score,ReNCell VM [2]; library: Spectrum,inactive: 0
CCCCC(C)(O)C/C=C/[C@H]1[C@H](O)CC(=O)[C@@H]1CCCCCCC(=O)OC (mixture of isomers) [Misoprostol],neuronal differentiation score,ReNCell VM [1]; library: Prestwick,inactive: 0
same,dopaminergic neuron differentiation score,ReNCell VM [2]; library: Prestwick,inactive: 0
CC(=O)SCC(Cc1ccccc1)C(=O)NCC(=O)OCc1ccccc1 (stereo not drawn) [Racecadotril],neuronal differentiation score,ReNCell VM [1]; library: Prestwick,inactive: 0
same,dopaminergic neuron differentiation score,ReNCell VM [2]; library: Prestwick,inactive: 0
CCCCCCCCCCCCCCCCOP(=O)([O-])OCC[N+](C)(C)C,neuronal differentiation score,ReNCell VM [1]; library: Spectrum,inactive: 0
same,dopaminergic neuron differentiation score,ReNCell VM [2]; library: Spectrum,inactive: 0
C=C1CCC2C(CC2(C)C)C(=C)CC/C1=N/O (stereo not drawn),neuronal differentiation score,ReNCell VM [1]; library: Spectrum,inactive: 0
same,dopaminergic neuron differentiation score,ReNCell VM [2]; library: Spectrum,inactive: 0
COc1cc(C(=O)N2CCOCC2)cc(OC)c1OC,neuronal differentiation score,ReNCell VM [1]; library: Spectrum,inactive: 0
same,dopaminergic neuron differentiation score,ReNCell VM [2]; library: Spectrum,inactive: 0
C=C[C@H]1CN2CC[C@H]1C[C@@H]2[C@@H](O)c1ccnc2ccc(OC)cc12 [Quinidine sulfate],neuronal differentiation score,ReNCell VM [1]; library: LOPAC,inactive: 0
same,dopaminergic neuron differentiation score,ReNCell VM [2]; library: LOPAC,inactive: 0
O=C(NC(Cc1cc(=O)[nH]c2ccccc12)C(=O)O)c1ccc(Cl)cc1 (stereo not drawn) [Rebamipide],neuronal differentiation score,ReNCell VM [1]; library: Prestwick,inactive: 0
same,dopaminergic neuron differentiation score,ReNCell VM [2]; library: Prestwick,inactive: 0
O=C1CCc2ccc(OCCCCN3CCN(c4cccc(Cl)c4Cl)CC3)cc2N1,neuronal differentiation score,ReNCell VM [1]; library: Spectrum,inactive: -3
same,dopaminergic neuron differentiation score,ReNCell VM [2]; library: Spectrum,inactive: 0
COc1cc2oc3cc(OC)c(OC)c(CC=C(C)C)c3c(=O)c2c(O)c1CC=C(C)C,neuronal differentiation score,ReNCell VM [1]; library: Spectrum,inactive: 0
same,dopaminergic neuron differentiation score,ReNCell VM [2]; library: Spectrum,inactive: 0
C[C@H]1C[C@H]2[C@@H]3CCC4=CC(=O)C=C[C@]4(C)[C@@]3(Cl)[C@@H](O)C[C@]2(C)[C@@]1(O)C(=O)CO [Beclomethasone],neuronal differentiation score,ReNCell VM [1]; library: LOPAC,inactive: 0
same,dopaminergic neuron differentiation score,ReNCell VM [2]; library: LOPAC,inactive: 0
CC1=C(C/C=C(\C)CCC[C@H](C)CCC[C@H](C)CCCC(C)C)C(=O)c2ccccc2C1=O,neuronal differentiation score,ReNCell VM [1]; library: Spectrum,inactive: 0
same,dopaminergic neuron differentiation score,ReNCell VM [2]; library: Spectrum,inactive: 0
COc1cc2c(cc1OC)[C@@H]1C(=O)c3ccc4c(c3O[C@@H]1CO2)C=CC(C)(C)O4,neuronal differentiation score,ReNCell VM [1]; library: Spectrum,inactive: 0
same,dopaminergic neuron differentiation score,ReNCell VM [2]; library: Spectrum,inactive: 0
CC1(C)OC(=O)C(OCC2CC2)=C1c1ccc(S(C)(=O)=O)cc1,neuronal differentiation score,ReNCell VM [1]; library: Spectrum,inactive: 0
same,dopaminergic neuron differentiation score,ReNCell VM [2]; library: Spectrum,inactive: 0
CCCC(=O)Nc1ccc(OCC(O)CNC(C)C)c(C(C)=O)c1 (stereo not drawn),neuronal differentiation score,ReNCell VM [1]; library: Spectrum,inactive: 1
same,dopaminergic neuron differentiation score,ReNCell VM [2]; library: Spectrum,inactive: 0
CN1CCC[C@@H]1Cc1c[nH]c2ccc(CCS(=O)(=O)c3ccccc3)cc12 [Eletriptan hydrobromide],neuronal differentiation score,ReNCell VM [1]; library: Tocriscreen,inactive: 0
same,dopaminergic neuron differentiation score,ReNCell VM [2]; library: Tocriscreen,inactive: 0
CC(=O)Nc1ccc(C(=O)O)cc1,neuronal differentiation score,ReNCell VM [1]; library: Spectrum,inactive: 0
same,dopaminergic neuron differentiation score,ReNCell VM [2]; library: Spectrum,inactive: 0
CC[C@H](C)[C@H](N)C1=N[C@H](C(=O)N[C@@H](CC(C)C)C(=O)N[C@H](CCC(=O)O)C(=O)N[C@H](C(=O)N[C@H]2CCCCNC(=O)[C@H](CC(N)=O)NC(=O)[C@@H](CC(=O)O)NC(=O)[C@H](Cc3cnc[nH]3)NC(=O)[C@@H](Cc3ccccc3)NC(=O)[C@H]([C@@H](C)CC)NC(=O)[C@@H](CCCN)NC2=O)[C@@H](C)CC)CS1 ({Ileψ(thiazoline)Cys}-L[dE]IK[dOrn]I[dF]H[dD]N; lactam 4-C),neuronal differentiation score,ReNCell VM [1]; library: Spectrum,inactive: 0
same,dopaminergic neuron differentiation score,ReNCell VM [2]; library: Spectrum,inactive: 0
Cl/C(=C\n1cncn1)c1ccc(Cl)cc1Cl [Loreclezole hydrochloride],neuronal differentiation score,ReNCell VM [1]; library: Tocriscreen,inactive: 0
same,dopaminergic neuron differentiation score,ReNCell VM [2]; library: Tocriscreen,inactive: 0
CCCCC/N=c1\ccn(Cc2ccccc2)c2ccccc12,neuronal differentiation score,ReNCell VM [1]; library: Tocriscreen,inactive: -1
same,dopaminergic neuron differentiation score,ReNCell VM [2]; library: Tocriscreen,inactive: 0
CN(C)CCOC(c1ccccc1)c1ccccc1.Cn1c(=O)c2[nH]c(Cl)nc2n(C)c1=O,neuronal differentiation score,ReNCell VM [1]; library: Spectrum,inactive: 1
same,dopaminergic neuron differentiation score,ReNCell VM [2]; library: Spectrum,inactive: 0
N[C@H]1C(O)O[C@H](CO)[C@@H](O)[C@@H]1O (stereo partly drawn),neuronal differentiation score,ReNCell VM [1]; library: Spectrum,inactive: 0
same,dopaminergic neuron differentiation score,ReNCell VM [2]; library: Spectrum,inactive: 0
COC(=O)C(Cc1ccccc1)NC(=O)/C(=C1/OC(=O)C(c2ccccc2)=C1O)c1ccccc1 (stereo not drawn),neuronal differentiation score,ReNCell VM [1]; library: Spectrum,inactive: 0
same,dopaminergic neuron differentiation score,ReNCell VM [2]; library: Spectrum,inactive: 0
NC12CC3CC(CC(C3)C1)C2 [Amantadine hydrochloride],neuronal differentiation score,ReNCell VM [1]; library: LOPAC,inactive: 0
same,dopaminergic neuron differentiation score,ReNCell VM [2]; library: LOPAC,inactive: 0
COc1cc(SC)ccc1C(=O)N1CCC(Cc2ccccc2)CC1,neuronal differentiation score,ReNCell VM [1]; library: Tocriscreen,inactive: 0
same,dopaminergic neuron differentiation score,ReNCell VM [2]; library: Tocriscreen,inactive: 0
N=C(N)c1ccc(OCCCCCOc2ccc(C(=N)N)cc2)cc1,neuronal differentiation score,ReNCell VM [1]; library: Spectrum,inactive: 0
same,dopaminergic neuron differentiation score,ReNCell VM [2]; library: Spectrum,inactive: 0
N=C(N)NC(=O)c1nc(Cl)c(N2CCCCCC2)nc1N,neuronal differentiation score,ReNCell VM [1]; library: Spectrum,inactive: 0
same,dopaminergic neuron differentiation score,ReNCell VM [2]; library: Spectrum,inactive: 0
